Binding data for one substance are collected here from article PMC6876861.

The target in this assay is T1, Guanine nucleotide exchange factor-H1 (GEF-H1) (mouse (endogenous in BMDCs)) (UniProt Q60875).
T1 sequence: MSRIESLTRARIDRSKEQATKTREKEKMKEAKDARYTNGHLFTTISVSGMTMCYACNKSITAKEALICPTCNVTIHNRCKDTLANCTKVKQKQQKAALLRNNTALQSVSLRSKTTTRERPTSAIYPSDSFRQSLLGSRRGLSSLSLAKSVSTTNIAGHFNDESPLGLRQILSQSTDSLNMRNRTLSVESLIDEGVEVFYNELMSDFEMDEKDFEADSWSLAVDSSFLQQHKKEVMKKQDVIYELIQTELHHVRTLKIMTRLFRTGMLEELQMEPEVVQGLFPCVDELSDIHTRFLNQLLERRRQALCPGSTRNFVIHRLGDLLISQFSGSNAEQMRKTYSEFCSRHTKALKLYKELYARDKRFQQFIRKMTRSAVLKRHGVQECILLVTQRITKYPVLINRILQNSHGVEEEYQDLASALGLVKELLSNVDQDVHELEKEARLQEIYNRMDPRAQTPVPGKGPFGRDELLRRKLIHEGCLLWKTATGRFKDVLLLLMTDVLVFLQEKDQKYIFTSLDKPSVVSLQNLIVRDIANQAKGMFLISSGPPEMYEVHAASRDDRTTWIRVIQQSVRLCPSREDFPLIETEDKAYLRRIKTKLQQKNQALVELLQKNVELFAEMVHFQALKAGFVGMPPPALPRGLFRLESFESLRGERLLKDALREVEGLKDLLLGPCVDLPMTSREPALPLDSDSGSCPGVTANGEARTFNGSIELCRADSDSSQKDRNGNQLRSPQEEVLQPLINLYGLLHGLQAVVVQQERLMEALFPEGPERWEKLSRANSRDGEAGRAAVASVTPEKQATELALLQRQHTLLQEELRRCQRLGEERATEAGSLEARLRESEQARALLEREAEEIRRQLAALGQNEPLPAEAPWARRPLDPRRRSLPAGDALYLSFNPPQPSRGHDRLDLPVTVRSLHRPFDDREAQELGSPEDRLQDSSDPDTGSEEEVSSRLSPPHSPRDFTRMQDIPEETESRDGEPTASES
Kind of assay: co-IP; anti-GEFH1 immunoprecipitation from NP-40 lysates of WT BMDCs treated with ansamitocin-P3 or taxane (100 nM) for the indicated times; blot for α-tubulin.

These are yes or no findings as the source states them, for the method shown. In cells and extracts the contact can be indirect. Binding calls can cover weak binding; strength is not graded here.

As to α-tubulin (mouse (endogenous in BMDCs)), the binding entry is reported as “binds”.
